These are yes or no findings as the source states them, for the method shown. In cells and extracts the contact can be indirect. Some entries that bind do so weakly or less than the wild type.
Experiments:
[1] = biological target: ROCK2 (rat (endogenous in Wistar rat heart)) (UniProt Q62868); assay: co-IP; 500 µg protein from control and diabetic rat hearts (untreated or perfused with 1 µM H-1152) incubated with anti-PKCβ2 or anti-ROCK2 antibody cross-linked to agarose resin (Pierce); Western blot of the precipitate
[2] = biological target: Protein kinase C β2 (rat (endogenous in Wistar rat heart)) (UniProt P68403); assay: as above

Chains of the proteins cited; added tags and fusions are not shown. Lines headed by an entry give the natural chain unless they say otherwise; changes in a name come on top. A line that says so, or that is headed by a name, gives the form on record, which may keep a tag or linker.
UniProt Q62868: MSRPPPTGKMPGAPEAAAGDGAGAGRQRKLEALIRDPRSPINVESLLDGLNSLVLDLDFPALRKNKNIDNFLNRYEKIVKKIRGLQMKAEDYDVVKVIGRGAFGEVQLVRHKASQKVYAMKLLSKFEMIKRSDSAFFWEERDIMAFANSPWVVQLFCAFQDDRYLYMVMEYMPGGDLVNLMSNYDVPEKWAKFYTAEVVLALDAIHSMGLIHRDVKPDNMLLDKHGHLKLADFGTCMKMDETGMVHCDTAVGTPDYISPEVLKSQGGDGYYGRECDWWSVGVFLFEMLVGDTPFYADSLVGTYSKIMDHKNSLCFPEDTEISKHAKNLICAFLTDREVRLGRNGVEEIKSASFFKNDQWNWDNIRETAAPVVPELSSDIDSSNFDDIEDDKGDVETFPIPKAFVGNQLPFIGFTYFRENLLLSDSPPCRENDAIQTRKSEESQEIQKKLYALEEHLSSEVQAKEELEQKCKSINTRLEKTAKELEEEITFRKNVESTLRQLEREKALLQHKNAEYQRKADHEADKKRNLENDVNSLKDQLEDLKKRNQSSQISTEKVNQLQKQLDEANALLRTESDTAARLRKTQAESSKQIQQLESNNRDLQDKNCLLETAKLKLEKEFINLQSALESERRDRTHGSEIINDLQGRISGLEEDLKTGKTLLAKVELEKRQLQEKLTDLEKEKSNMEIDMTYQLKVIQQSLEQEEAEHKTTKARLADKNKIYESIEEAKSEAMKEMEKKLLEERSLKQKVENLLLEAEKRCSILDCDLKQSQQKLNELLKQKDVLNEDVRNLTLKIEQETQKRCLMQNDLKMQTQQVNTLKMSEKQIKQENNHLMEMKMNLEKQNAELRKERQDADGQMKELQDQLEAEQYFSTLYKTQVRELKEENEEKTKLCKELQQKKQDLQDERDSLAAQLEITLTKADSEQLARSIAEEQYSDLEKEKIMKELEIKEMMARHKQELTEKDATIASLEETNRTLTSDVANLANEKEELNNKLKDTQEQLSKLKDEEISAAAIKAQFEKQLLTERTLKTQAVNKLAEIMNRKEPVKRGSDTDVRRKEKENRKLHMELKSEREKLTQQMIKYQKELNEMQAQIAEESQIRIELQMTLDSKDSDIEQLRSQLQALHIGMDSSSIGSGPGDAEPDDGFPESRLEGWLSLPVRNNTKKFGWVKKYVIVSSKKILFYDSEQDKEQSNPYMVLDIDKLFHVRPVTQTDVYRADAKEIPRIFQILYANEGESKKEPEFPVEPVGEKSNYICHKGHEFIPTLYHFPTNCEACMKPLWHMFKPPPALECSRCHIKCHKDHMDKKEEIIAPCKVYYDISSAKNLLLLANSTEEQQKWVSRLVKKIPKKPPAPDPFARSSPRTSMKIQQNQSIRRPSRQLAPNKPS
Protein kinase C β2 (rat (endogenous in Wistar rat heart)) (P68403-2, form named): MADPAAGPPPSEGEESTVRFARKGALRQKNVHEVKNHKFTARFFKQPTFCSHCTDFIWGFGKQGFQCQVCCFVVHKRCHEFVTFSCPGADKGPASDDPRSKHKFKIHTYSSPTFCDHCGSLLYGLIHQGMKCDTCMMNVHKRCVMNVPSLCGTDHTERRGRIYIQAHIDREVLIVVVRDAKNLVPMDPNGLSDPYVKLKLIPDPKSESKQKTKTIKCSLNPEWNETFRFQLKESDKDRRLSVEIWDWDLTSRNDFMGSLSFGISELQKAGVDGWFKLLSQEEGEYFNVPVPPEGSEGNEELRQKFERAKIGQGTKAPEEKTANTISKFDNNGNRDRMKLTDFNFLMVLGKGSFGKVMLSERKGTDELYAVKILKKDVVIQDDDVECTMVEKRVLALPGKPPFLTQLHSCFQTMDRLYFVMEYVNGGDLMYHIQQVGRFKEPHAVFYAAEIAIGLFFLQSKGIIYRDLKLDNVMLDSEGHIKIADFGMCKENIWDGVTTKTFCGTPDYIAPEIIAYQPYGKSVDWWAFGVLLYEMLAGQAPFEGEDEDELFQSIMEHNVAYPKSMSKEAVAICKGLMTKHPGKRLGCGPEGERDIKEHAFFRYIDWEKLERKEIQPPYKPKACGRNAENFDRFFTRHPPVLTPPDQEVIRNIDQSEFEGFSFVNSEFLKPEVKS

## Protein kinase C β2 (from UniProt P68403-2 1-673) (enzyme)
[1]
  binding: binds

## ROCK2 (from UniProt Q62868 1-1388) (enzyme)
[2]
  binding: binds

— publication PMC3896488
